The test concerns the target suppressor of cytokine signaling 3 (SOCS3) (human (endogenous in ACHN and 786-O)) (UniProt O14543). In words: co-IP; ACHN and 786-O cells treated with 1000 IU/mL IFN-α for different time periods, lysed; immunoprecipitation with anti-SOCS3 antibody on Protein G magnetic beads; Western blot with anti-SOCS3 and anti-DR4 antibodies.

Sequences of proteins named here, by UniProt entry; tags and fusion partners are left off. Residues count along the entry.
UniProt O14543: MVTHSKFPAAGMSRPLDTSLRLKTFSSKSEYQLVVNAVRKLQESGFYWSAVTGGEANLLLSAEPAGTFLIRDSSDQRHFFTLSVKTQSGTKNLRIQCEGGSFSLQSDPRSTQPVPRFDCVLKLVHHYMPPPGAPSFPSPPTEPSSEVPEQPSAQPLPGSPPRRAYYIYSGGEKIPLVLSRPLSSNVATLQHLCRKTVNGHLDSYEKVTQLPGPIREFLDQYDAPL
UniProt O00220, residues 24-468: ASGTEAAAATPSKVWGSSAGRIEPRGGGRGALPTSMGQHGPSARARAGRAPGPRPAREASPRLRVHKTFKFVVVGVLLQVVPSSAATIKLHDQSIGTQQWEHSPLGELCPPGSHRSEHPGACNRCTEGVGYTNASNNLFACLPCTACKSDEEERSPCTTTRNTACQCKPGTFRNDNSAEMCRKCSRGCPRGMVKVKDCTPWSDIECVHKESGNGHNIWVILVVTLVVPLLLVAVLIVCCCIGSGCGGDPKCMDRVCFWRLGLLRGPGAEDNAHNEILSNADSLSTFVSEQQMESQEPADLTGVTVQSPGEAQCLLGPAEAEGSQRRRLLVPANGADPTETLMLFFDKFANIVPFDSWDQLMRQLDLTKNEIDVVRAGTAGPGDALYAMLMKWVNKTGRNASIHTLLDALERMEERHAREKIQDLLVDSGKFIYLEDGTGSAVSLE

These are yes or no findings as the source states them, for the method shown. In cells and extracts the contact can be indirect. Some entries that bind do so weakly or less than the wild type.

For “TRAIL-R1/DR4 (from UniProt O00220 24-468) (receptor)”, the binding entry was “binds”.

The values are drawn from PMC6114968.
